Experimental data taken from PubChem BioAssay AID504648 (National Center for Advancing Translational Sciences (NCATS), 2011).
In all, about 390,000 compounds went through this assay and about 610 (0.16%) were called active. Inconclusive results, whose numbers are uncertain, are shown with a selection of clear calls. The call rests on the fitted dose curve; in most records, active means well fitted inhibition curve with a large enough effect; inconclusive means small, poorly fitted or top-dose-only effect, or effect the other way, or another doubt; inactive means no such curve, though single readings can be large or run the other way. Where the call is inconclusive, the potency comes from a doubtful curve fit.

experiment: Nrf2 qHTS screen for inhibitors: counterscreen for cytotoxicity; settings: A549 ARE-Fluc cells, CellTiter-Fluor viability, 18-24 h; series mostly up to 46 µM
In short: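 Cytotoxicity counterscreen: CellTiter-Fluor fluorescence was measured in A549 ARE_Fluc cells after 18-24 h of compound exposure in a concentration series. The subsequent BugLite luminescent read reports ARE-luciferase activity.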
Potency means the concentration at half of the fitted maximal effect.

| SMILES | Potency |
| --- | --- |
| Cc1cc(Cl)ccc1NC(=O)CCn1nc(C)c2c(C)n(-c3ccccc3)nc2c1=O | inactive |
| CCOc1ccc2[nH]c(=O)c(CN(CCO)C(c3nnnn3C3CCCCC3)C(C)C)cc2c1 (stereo unspecified) | inactive |
| Cc1cc(-c2ccc(C)c(S(=O)(=O)N3c4ccccc4CC3C)c2)on1 (stereo unspecified) | inconclusive: 29.1 µM [falling, partial curve, poor fit] |
| CCN1CCN(CCNC(=O)c2ccc(/C=C3/Sc4ccccc4N(Cc4ccccc4C)C3=O)cc2)CC1 | inconclusive: 29.1 µM [falling, single point] |
| CC(=O)N1CCc2c(sc3c2c(=O)n(-c2cccc(Cl)c2)c(=O)n3Cc2ccc(F)cc2Cl)C1 | inactive |
| CCN(CC)c1cc(C)c2cc(NC(=O)/C=C/c3ccccc3OC(C)C)ccc2n1 | inconclusive: 23.1 µM [falling, partial curve, poor fit] |
| Cc1cccc(C(=O)N2CCC(=O)N(C(COCc3cccc(C(F)(F)F)c3)Cc3ccccc3)CC2)c1 (stereo unspecified) | inconclusive: 29.1 µM [falling, single point] |
| O=C(Nc1cc(S(=O)(=O)N2CCCCC2)ccc1Cl)c1ccccc1NS(=O)(=O)c1ccc(F)cc1 | inconclusive: 6.51 µM [falling, partial curve] |
| COc1cc(OC)c2c(-c3ccccc3)cc(=O)oc2c1C(CC(=O)N1CCCC1)c1ccc(N(C)C)cc1 (stereo unspecified) | inconclusive: 25.9 µM [falling, single point] |
| COC(=O)c1cccc(COC(=O)c2ccccc2NC(=O)c2ccco2)c1 | inconclusive: 5.8 µM [falling, single point] |
| Cc1cc(N2CCC(C(=O)Nc3ccc(Cl)cc3)CC2)n2nc(C)c(-c3ccc(Cl)cc3)c2n1 | inactive |
| O=C(N/N=C/c1cc([N+](=O)[O-])ccc1O)c1ccc(COc2ccc3c(c2)CCC3)o1 | inconclusive: 14.6 µM [falling, single point] |
| CCCCN(CC)CCNC(=O)C1CCN(c2nnc(C)c3c(C)n(-c4ccc(C)cc4)nc23)CC1 | active: 23.1 µM |
| NS(=O)(=O)c1ccc(NC(=O)CCC(=O)c2ccc(Cl)s2)cc1 | inactive |
| COc1cc2ccc(=O)oc2c(O)c1O | inconclusive: 16.4 µM [activator, partial curve] |
| O=C(/C=C/c1ccccc1)c1ccc2c(c1)OCCCCO2 | inactive |
| O=[N+]([O-])c1ncccc1OCc1ccc(-c2ccccc2)cc1 | inconclusive: 9.2 µM [falling, partial curve, poor fit] |
| Cc1c(C(=O)Nc2ccccc2F)sc2ncn(CC(=O)N3CCCCC3)c(=O)c12 | inactive |
| COc1ccc(/C=N\Nc2ccccc2[N+](=O)[O-])c(C(=O)O)c1OC | inconclusive: 23.1 µM [falling, single point] |
| COc1ccc(OC)c(C2C(C(=O)c3cc4ccccc4o3)=C(O)C(=O)N2c2cc(C)on2)c1 (stereo unspecified) | active: 11.6 µM |
| Cc1occc1C(=O)Nc1cccc(C(F)(F)F)c1 | inconclusive: 0.58 µM [falling, partial curve, poor fit] |
| NC1=NC(=Nc2ccc(Br)cc2)c2ccccc21 | inconclusive: 14.6 µM [falling, partial curve, poor fit] |

A second format for some results above.
SMILES	Potency
Cc1cc(Cl)ccc1NC(=O)CCn1nc(C)c2c(C)n(-c3ccccc3)nc2c1=O	inactive
CCOc1ccc2[nH]c(=O)c(CN(CCO)C(c3nnnn3C3CCCCC3)C(C)C)cc2c1 (stereo unspecified)	inactive
Cc1cc(-c2ccc(C)c(S(=O)(=O)N3c4ccccc4CC3C)c2)on1 (stereo unspecified)	inconclusive: 29.1 µM [falling, partial curve, poor fit]
CCN1CCN(CCNC(=O)c2ccc(/C=C3/Sc4ccccc4N(Cc4ccccc4C)C3=O)cc2)CC1	inconclusive: 29.1 µM [falling, single point]
CC(=O)N1CCc2c(sc3c2c(=O)n(-c2cccc(Cl)c2)c(=O)n3Cc2ccc(F)cc2Cl)C1	inactive
CCN(CC)c1cc(C)c2cc(NC(=O)/C=C/c3ccccc3OC(C)C)ccc2n1	inconclusive: 23.1 µM [falling, partial curve, poor fit]
Cc1cccc(C(=O)N2CCC(=O)N(C(COCc3cccc(C(F)(F)F)c3)Cc3ccccc3)CC2)c1 (stereo unspecified)	inconclusive: 29.1 µM [falling, single point]
O=C(Nc1cc(S(=O)(=O)N2CCCCC2)ccc1Cl)c1ccccc1NS(=O)(=O)c1ccc(F)cc1	inconclusive: 6.51 µM [falling, partial curve]
COc1cc(OC)c2c(-c3ccccc3)cc(=O)oc2c1C(CC(=O)N1CCCC1)c1ccc(N(C)C)cc1 (stereo unspecified)	inconclusive: 25.9 µM [falling, single point]
COC(=O)c1cccc(COC(=O)c2ccccc2NC(=O)c2ccco2)c1	inconclusive: 5.8 µM [falling, single point]
Cc1cc(N2CCC(C(=O)Nc3ccc(Cl)cc3)CC2)n2nc(C)c(-c3ccc(Cl)cc3)c2n1	inactive
O=C(N/N=C/c1cc([N+](=O)[O-])ccc1O)c1ccc(COc2ccc3c(c2)CCC3)o1	inconclusive: 14.6 µM [falling, single point]
CCCCN(CC)CCNC(=O)C1CCN(c2nnc(C)c3c(C)n(-c4ccc(C)cc4)nc23)CC1	active: 23.1 µM
NS(=O)(=O)c1ccc(NC(=O)CCC(=O)c2ccc(Cl)s2)cc1	inactive
COc1cc2ccc(=O)oc2c(O)c1O	inconclusive: 16.4 µM [activator, partial curve]
O=C(/C=C/c1ccccc1)c1ccc2c(c1)OCCCCO2	inactive
O=[N+]([O-])c1ncccc1OCc1ccc(-c2ccccc2)cc1	inconclusive: 9.2 µM [falling, partial curve, poor fit]

Following part.

| SMILES | Potency |
| --- | --- |
| Cc1cc(Br)cc(Cl)c1OC(=O)c1ccncc1 | inconclusive: 8.2 µM [activator, partial curve, poor fit] |
| CC(C)=CCC/C(C)=C/CNC(=O)C[C@H]1C[C@H](C(=O)N2CCOCC2)[C@@]2(C)c3[nH]c4ccc(Cl)cc4c3CCN2C1=O | inconclusive: 29.1 µM [falling, single point] |
| O=C(COc1ccccc1)NNc1c2ccccc2nc2ccccc12 | inconclusive: 20.6 µM [falling, single point] |
| CCOCC(=O)Nc1cc(C(F)(F)F)ccc1Oc1cccc(Br)c1 | inconclusive: 7.31 µM [activator, partial curve, poor fit] |
| Cc1ccc(NC(=O)/C=C/c2ccco2)cc1S(=O)(=O)N1CCCCCC1 | inconclusive: 23.1 µM [falling, partial curve, poor fit] |
| CC1(CCC(=O)N2CCCC(N3CCN(c4cccc(C(F)(F)F)c4)CC3)C2)CC1 (stereo unspecified) | inconclusive: 23.1 µM [falling, single point] |
| CCN1CCc2c(sc3c2c(NCc2ccco2)nc2nnnn23)C1 | inactive |
| CCOc1ccc(NCc2cccn2-c2nnc(N3CCC(C(=O)NCc4ccc(C)cc4)CC3)s2)cc1 | inactive |
| COc1ccc(/C=C/C(=O)c2ccc([N+](=O)[O-])o2)cc1OC | inconclusive: 23.1 µM [falling, single point] |
| CCN(CC)C(=O)Cn1c(=O)n(CCCCCC(=O)NCc2ccccc2)c(=O)c2sccc21 | inactive |
| c1ccc2c(c1)ncn2Cc1nnc2sc(-c3ccc4c(c3)OCO4)nn12 | inactive |
| COc1ccc(C2/C=C\CC(NC(=O)OCC3c4ccccc4-c4ccccc43)CC(=O)N2Cc2ccccc2F)cc1 (stereo unspecified) | inconclusive: 11.6 µM [falling, partial curve, poor fit] |
| COc1cc(/C=C/c2nc3ccccc3c(=O)[nH]2)cc(OC)c1OC | inactive |
| CCCn1nc(NC(=O)c2cccs2)c2cc3cc(OC)ccc3nc21 | inactive |
| Cc1cccc(CS(=O)(=O)Cc2ccc(C(=O)NC(C)c3ccccc3)o2)c1 (stereo unspecified) | inconclusive: 7.31 µM [activator, partial curve, poor fit] |
| Cc1ccc(C)c(OCC(=O)Nc2nc3ccc([N+](=O)[O-])cc3s2)c1C | inconclusive: 20.6 µM [falling, single point] |
| Cc1ccc(C(=O)Nc2nnc(NC(=S)Nc3ccccc3)s2)cc1 | inconclusive: 9.2 µM [falling, partial curve, poor fit] |
| Cc1cc(C(=O)COC(=O)c2cccc(O)c2)c(C)n1C1CC1 | inactive |
| COc1cc(OC)cc(C(=O)Nc2ccc3oc(-c4ccc(Cl)cc4)nc3c2)c1 | inactive |
| O=C(C1=C[C@@H](c2ccc(Br)cc2)C[C@@H](OCCCCO)O1)N1CCN(Cc2ccccc2)CC1 | inconclusive: 16.4 µM [falling, partial curve, poor fit] |
| O=C(NCCc1cccnc1)c1cc(COc2ccc(F)cc2Cl)on1 | inactive |
| Cc1nc2ccc(S(=O)(=O)N(CC(=O)Nc3ccc(Cl)cc3)Cc3ccccc3)cc2s1 | inactive |

| SMILES | Potency |
| --- | --- |
| COc1cc(Cl)c(C)cc1Nc1c2c(nc3ccccc13)CCC2 | inconclusive: 29.1 µM [falling, single point] |
| O=[S+]([O-])(c1cc2ccccc2o1)N1CCN([S+](=O)([O-])c2c(F)cccc2F)CC1 | inactive |
| Cc1ccccc1C1C(C#N)=C2N=C(N)c3c(sc4c3CCCCC4)N2C2=C1C(=O)CC(C)(C)C2 (stereo unspecified) | inconclusive: 29.1 µM [falling, partial curve, poor fit] |
| CN(C(=O)Cc1c[nH]c2ccccc12)C(C(=O)Nc1ccc2c(c1)OCO2)c1ccccc1 (stereo unspecified) | inconclusive: 20.6 µM [falling, single point] |
| Cc1cccc(OCC(=O)NNc2c3ccccc3nc3ccccc23)c1 | inconclusive: 25.9 µM [falling, partial curve] |
| Oc1c(CN2CCN(c3ccccc3)CC2)cc(Br)c2cccnc12 | inactive |
| O=[N+]([O-])c1ccc(N2CCNCC2)cc1NCc1cccnc1 | inconclusive: 23.1 µM [falling, single point] |
| C=CCN(c1ccccc1)S(=O)(=O)c1cccc(C(=O)NC2CCN(Cc3ccccc3)CC2)c1 | inconclusive: 23.1 µM [falling, partial curve] |
| CC(C)Oc1cccc(C(=O)Nc2ccc(-c3nc4cc(Cl)cc(Cl)c4o3)cc2)c1 | inactive |
| CCCCOCC(O)CN1CCN(C(C)=O)CC1 (stereo unspecified) | inconclusive: 2.59 µM [activator, partial curve, poor fit] |
| O=C1CC2(CCN(C(=O)c3ccccc3Br)CC2)Oc2ccccc21 | inactive |
| CCCc1ccc(OCc2ccc(C(=O)N3CCN(c4ccccn4)CC3)o2)c(OC)c1 | inconclusive: 20.6 µM [falling, single point] |
| Cn1cc(S(=O)(=O)N2CCCC2)cc1C(=O)Nc1ccc(C(F)(F)F)cc1 | inactive |
| O=C(Nc1ccc(SC(F)F)cc1)c1ccc2c(=O)n3c(nc2c1)CCC3 | inconclusive: 8.2 µM [falling, partial curve, poor fit] |
| O=C(c1cc(Cl)cc(Cl)c1)N1CCC(=O)N(C(COCc2ccccc2)Cc2ccccc2)CC1 (stereo unspecified) | inconclusive: 18.4 µM [falling, single point] |
| COc1ccc(CNc2oc(COc3cccc(C)c3)nc2C#N)cc1 | inconclusive: 25.9 µM [activator, partial curve, poor fit] |
| Nc1nc(Cl)cc(N2CCC(c3cc(-c4ccc(Cl)cc4Cl)n[nH]3)CC2)n1 | inconclusive: 25.9 µM [falling, single point] |
| CCN(CC)S(=O)(=O)c1cccc(C(=O)Nc2ccc(Cl)cn2)c1 | inconclusive: 23.1 µM [falling, single point] |
| Nc1nc2ccc([N+](=O)[O-])c(N)c2s1 | inconclusive: 20.6 µM [falling, single point] |
| COc1cccc2cc(-c3nnc(-c4ccc(Cl)cc4)o3)c(=O)oc12 | inactive |
| CCCn1c(NC(=O)c2ccc(Cl)c(S(=O)(=O)N3CCCC3)c2)nc2ccccc21 | inconclusive: 23.1 µM [falling, single point] |
| C/C(=N\NC(=O)c1cc2c(s1)CCC(C)C2)c1ccncc1 (stereo unspecified) | inactive |
